The target of one experiment is 6His-PFN1 (wt) (human) (UniProt P07737). In words: condition: 2 µg PP1Cα in 100 µl; 10 µg 6His-PFN1 on beads; pull-down; 10 µg 6His-PFN1 held on 20 µl Ni-NTA beads (pre-blocked with 1% BSA); 2 µg recombinant PP1Cα in 100 µl 10 mM Tris-HCl pH 7.4, 150 mM NaCl, 0.1% BSA, 0.1% Triton X-100; 1 hr at 4°C, 4 washes; Western blot for PP1Cα; both purified.
For experiment [1], the target named is Myc-PP2ACα, alpha isoform of the protein phosphatase 2A catalytic subunit (UniProt P67775). The experiment is described as follows: co-IP; HEK293 cells co-transfected with Myc-tagged phosphatase and PFN1 (untagged or HA-tagged); lysis in 50 mM Tris-HCl pH 7.4, 150 mM NaCl, 0.1% Triton X-100; anti-Myc agarose beads, 2 hr at 4°C, 4 washes; Western blot for PFN1 or the HA tag. On the technique in general: A western blot detects proteins with antibodies after separation by electrophoresis.

Sequences of proteins named here, by UniProt entry; tags and fusion partners are left off.
UniProt P07737: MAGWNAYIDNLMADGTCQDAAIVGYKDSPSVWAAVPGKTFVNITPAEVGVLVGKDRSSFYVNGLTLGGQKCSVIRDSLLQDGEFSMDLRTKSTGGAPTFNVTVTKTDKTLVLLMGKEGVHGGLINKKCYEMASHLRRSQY
UniProt P67775: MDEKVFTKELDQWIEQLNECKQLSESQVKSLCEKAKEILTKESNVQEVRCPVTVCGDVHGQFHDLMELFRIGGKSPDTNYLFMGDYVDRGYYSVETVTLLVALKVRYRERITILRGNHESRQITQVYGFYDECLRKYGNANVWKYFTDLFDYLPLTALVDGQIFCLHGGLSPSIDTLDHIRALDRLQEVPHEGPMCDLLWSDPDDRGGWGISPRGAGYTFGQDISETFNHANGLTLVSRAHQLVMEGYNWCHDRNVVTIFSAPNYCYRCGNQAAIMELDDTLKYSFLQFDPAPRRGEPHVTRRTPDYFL
UniProt P62139: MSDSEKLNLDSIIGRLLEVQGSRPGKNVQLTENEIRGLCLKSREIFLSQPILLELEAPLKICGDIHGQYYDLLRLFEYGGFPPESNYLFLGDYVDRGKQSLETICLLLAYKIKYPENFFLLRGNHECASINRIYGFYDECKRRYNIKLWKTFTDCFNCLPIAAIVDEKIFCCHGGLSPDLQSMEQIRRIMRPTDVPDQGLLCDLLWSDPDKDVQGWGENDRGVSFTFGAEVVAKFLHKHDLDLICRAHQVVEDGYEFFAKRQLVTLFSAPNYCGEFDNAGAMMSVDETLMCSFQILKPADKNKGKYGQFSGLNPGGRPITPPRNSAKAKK

No constants are given. Whether binding was seen depends on the method and setting. For some assays here: Binding seen in cells or lysates may run through a third protein.

Turning to “Alpha isoform of bacterially expressed recombinant PP1 catalytic subunit (from UniProt P62139 1-330) (enzyme)”, the binding entry with 6His-PFN1 (wt) (human) is listed as “no binding”.

Regarding “Profilin-1 (PFN1), untagged, wild type (from UniProt P07737 1-140)”, the binding entry in experiment [1] is recorded as “no binding”.

The values above are taken from PMC3316545.
